Reference: the supplement of paper PMC6411743
± gives the standard deviation of the averaged measurements. The entries are a selection whose mix differs from that of the whole data set.

By UniProt entry, the sequences of proteins in these tests, tags left out. Where a name states a change or a piece, a line headed by the entry shows the natural chain unless it says otherwise.
UniProt Q9NWS0, whole entry: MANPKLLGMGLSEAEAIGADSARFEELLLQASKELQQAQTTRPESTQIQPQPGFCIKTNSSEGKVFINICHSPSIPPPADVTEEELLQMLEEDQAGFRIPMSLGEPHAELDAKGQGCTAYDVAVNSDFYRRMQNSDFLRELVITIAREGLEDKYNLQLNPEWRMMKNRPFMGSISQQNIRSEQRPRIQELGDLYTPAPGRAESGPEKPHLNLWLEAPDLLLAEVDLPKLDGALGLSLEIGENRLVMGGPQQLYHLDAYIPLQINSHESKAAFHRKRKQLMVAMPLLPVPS
UniProt O00442: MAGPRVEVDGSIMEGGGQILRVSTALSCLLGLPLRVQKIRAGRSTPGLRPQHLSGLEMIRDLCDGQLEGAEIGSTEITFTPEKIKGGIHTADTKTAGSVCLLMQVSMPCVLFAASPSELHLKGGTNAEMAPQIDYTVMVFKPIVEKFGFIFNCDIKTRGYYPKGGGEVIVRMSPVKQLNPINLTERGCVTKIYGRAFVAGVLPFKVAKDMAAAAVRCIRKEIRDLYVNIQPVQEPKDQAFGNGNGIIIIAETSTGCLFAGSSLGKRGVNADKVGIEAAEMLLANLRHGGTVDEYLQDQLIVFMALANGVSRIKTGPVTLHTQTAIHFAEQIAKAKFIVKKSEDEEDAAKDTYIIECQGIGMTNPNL
UniProt O00487, whole entry: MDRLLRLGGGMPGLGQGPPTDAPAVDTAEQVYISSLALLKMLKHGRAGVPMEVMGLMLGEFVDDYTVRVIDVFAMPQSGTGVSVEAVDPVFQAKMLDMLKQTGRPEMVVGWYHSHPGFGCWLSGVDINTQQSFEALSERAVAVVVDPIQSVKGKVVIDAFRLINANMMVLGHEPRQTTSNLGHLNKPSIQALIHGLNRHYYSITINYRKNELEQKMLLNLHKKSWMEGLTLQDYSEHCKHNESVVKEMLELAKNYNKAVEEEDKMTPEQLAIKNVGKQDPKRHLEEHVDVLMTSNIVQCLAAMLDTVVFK
UniProt O43617, whole entry: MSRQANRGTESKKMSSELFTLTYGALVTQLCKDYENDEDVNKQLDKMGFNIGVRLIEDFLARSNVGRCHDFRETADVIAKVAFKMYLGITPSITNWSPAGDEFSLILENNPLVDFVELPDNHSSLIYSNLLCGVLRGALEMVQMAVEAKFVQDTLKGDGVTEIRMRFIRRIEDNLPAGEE
UniProt O00592: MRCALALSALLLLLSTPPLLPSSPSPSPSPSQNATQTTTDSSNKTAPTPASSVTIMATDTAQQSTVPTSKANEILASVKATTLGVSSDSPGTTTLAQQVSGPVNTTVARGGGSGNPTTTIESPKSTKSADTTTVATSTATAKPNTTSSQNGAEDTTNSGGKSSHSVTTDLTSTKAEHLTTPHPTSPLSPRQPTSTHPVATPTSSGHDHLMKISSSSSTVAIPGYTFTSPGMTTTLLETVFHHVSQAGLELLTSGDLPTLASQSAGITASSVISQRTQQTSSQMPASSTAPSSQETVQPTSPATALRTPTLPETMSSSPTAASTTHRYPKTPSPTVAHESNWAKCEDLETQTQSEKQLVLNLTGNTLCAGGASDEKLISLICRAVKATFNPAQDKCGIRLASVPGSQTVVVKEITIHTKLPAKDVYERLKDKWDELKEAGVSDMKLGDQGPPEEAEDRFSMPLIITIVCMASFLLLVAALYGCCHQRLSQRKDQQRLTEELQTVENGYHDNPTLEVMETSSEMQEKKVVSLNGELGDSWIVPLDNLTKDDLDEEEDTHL
UniProt O15397, whole entry: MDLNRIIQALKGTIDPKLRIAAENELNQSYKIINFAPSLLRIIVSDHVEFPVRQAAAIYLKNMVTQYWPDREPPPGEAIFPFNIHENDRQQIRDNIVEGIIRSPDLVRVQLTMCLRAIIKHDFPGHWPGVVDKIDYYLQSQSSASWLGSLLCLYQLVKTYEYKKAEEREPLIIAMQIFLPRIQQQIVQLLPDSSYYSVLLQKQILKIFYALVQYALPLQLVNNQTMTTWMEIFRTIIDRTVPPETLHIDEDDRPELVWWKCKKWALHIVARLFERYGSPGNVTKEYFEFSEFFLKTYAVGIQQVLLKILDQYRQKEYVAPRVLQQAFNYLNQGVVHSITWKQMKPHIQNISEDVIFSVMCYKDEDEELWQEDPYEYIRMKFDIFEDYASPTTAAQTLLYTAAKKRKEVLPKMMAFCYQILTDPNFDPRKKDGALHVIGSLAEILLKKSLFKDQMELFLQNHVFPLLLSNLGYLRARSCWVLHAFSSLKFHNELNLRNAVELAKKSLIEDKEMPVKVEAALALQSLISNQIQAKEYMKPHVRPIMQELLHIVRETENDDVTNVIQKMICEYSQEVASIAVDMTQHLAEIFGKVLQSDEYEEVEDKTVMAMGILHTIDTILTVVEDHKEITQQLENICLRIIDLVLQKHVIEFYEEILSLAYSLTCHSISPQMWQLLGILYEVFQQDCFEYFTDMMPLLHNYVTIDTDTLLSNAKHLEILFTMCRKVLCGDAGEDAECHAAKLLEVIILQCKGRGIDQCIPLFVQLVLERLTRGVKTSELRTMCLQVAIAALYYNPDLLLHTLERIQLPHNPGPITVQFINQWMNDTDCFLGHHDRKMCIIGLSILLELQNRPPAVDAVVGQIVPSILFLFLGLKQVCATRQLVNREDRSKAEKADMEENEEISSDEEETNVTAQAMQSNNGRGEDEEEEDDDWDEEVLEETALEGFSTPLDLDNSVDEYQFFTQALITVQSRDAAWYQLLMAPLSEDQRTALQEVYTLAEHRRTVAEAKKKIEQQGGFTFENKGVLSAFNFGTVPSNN
UniProt O43684, whole entry: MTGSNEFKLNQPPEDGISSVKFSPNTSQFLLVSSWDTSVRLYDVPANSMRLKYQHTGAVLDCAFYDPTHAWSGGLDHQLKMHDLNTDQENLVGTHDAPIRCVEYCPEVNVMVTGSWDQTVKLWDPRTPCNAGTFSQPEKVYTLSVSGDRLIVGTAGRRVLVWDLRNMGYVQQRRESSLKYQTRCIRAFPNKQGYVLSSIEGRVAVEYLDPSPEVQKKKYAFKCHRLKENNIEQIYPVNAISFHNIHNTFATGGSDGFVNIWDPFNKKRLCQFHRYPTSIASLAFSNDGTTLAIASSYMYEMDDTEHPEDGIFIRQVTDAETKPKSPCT
UniProt O00443: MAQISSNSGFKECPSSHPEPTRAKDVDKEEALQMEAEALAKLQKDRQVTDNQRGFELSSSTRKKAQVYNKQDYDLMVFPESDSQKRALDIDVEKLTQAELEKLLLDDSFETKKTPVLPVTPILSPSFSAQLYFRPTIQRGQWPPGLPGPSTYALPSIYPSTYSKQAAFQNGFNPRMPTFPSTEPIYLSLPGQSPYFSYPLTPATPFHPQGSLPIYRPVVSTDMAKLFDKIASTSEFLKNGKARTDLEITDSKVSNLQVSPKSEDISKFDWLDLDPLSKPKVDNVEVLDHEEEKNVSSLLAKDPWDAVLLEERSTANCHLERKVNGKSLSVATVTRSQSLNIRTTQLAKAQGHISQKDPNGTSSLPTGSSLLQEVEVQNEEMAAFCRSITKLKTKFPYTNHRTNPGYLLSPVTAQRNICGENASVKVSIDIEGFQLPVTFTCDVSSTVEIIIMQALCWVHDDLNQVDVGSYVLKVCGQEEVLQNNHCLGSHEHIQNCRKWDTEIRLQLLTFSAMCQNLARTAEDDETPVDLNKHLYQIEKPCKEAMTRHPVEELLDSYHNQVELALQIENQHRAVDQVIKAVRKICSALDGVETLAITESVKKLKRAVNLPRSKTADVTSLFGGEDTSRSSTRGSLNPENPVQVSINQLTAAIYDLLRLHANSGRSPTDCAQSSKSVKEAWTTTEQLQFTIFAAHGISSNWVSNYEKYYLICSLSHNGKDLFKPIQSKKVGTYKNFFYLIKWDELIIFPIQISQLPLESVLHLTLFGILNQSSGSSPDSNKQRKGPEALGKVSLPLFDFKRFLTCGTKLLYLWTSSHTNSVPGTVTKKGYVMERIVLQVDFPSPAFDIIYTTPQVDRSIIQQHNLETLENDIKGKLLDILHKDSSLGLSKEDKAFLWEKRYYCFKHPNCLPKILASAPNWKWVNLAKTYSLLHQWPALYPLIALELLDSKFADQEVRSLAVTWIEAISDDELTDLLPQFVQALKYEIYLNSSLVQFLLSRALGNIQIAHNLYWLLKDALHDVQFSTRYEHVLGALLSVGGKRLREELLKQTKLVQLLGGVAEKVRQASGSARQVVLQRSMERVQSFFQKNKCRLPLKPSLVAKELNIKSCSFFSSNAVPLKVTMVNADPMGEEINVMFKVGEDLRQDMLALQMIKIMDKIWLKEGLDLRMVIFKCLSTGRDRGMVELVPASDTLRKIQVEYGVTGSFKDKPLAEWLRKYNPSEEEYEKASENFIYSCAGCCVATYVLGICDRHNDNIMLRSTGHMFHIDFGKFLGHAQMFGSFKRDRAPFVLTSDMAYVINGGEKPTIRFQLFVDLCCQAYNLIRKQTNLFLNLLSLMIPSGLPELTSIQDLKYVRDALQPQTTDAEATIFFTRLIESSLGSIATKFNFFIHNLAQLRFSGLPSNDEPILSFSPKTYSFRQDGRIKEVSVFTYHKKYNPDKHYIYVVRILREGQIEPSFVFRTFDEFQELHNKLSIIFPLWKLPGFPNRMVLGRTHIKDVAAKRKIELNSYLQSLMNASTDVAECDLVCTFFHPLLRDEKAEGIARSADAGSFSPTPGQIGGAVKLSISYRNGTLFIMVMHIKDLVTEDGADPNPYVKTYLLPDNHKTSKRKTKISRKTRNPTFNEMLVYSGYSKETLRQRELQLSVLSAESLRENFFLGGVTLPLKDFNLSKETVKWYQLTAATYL
UniProt O14949: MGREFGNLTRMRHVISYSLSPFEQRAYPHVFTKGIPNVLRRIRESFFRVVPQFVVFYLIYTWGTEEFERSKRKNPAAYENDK
UniProt O15498: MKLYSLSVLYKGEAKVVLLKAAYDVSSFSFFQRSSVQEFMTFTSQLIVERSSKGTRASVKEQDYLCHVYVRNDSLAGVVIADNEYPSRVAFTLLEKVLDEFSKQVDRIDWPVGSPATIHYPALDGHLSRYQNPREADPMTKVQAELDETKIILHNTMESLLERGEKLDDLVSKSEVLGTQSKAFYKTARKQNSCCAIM
UniProt O15085: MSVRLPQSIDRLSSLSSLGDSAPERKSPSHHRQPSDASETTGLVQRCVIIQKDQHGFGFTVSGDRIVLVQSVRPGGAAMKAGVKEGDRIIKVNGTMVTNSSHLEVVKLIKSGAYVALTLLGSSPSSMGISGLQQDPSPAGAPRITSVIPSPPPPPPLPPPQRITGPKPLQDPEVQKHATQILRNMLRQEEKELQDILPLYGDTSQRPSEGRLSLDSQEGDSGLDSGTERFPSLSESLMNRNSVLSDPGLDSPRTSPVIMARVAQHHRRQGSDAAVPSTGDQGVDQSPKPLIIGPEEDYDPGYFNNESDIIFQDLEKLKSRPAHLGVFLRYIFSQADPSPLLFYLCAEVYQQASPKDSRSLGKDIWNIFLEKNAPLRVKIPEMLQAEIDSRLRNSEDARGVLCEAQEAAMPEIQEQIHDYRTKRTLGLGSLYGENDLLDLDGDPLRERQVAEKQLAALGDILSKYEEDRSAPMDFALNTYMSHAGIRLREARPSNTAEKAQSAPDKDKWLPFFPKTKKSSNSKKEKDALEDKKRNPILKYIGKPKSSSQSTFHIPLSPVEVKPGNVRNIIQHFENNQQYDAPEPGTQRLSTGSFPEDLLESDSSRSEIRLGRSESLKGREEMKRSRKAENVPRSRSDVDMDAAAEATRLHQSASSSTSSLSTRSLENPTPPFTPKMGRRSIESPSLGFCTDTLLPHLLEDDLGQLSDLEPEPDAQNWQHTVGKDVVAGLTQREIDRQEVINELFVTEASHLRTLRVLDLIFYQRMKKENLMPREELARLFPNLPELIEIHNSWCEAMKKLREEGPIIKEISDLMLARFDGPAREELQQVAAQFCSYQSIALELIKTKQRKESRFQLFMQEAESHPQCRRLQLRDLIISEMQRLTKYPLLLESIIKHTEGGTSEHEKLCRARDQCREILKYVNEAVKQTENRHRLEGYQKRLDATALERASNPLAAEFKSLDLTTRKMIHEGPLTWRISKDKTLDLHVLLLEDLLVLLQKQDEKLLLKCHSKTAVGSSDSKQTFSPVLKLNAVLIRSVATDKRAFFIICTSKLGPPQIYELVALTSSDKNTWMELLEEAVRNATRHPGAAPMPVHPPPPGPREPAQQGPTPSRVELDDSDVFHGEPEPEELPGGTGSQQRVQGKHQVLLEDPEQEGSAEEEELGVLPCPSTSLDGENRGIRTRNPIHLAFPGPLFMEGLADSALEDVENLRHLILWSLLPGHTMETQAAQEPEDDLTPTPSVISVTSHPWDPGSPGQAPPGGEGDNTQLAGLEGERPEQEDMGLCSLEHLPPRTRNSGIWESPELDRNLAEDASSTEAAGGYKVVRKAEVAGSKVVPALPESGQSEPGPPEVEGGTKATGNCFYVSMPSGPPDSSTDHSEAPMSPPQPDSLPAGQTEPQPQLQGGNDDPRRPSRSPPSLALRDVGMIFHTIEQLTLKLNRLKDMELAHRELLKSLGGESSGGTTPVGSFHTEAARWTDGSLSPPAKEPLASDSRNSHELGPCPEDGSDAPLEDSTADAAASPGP

Compound: Nc1ncnc2c1ncn2[C@@H]1O[C@H](COP(=O)(O)OP(=O)(O)OP(=O)(O)O)[C@@H](O)[C@H]1O [adenosine triphosphate]
Test: NP40-soluble protein abundance relative to vehicle (solubility fold change) (ratio); higher = more soluble protein in presence of ATP
How it was run: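 Eight concentrations, 0.1 to 10 mM, were tested on Jurkat crude lysate for 10 min at room temperature and then 3 min at 37 °C, in three independent experiments. The lysate was solubilised with 0.8% NP40 and benzonase, ultracentrifuged, and the supernatant TMT-labelled for LC-MS/MS. Each value is the fold change against the detergent-processed vehicle in its own replicate, from vsn-normalised intensities.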

Target	NP40-soluble protein abundance (concentration: 1mM)	NP40-soluble protein abundance (concentration: 2mM)	NP40-soluble protein abundance (concentration: 4mM)	NP40-soluble protein abundance (concentration: 6mM)	NP40-soluble protein abundance (concentration: 8mM)	NP40-soluble protein abundance (concentration: 10mM)
CDC7 (UniProt O00311)	1.16 ± 0.03	1.21 ± 0.086	1.26 ± 0.078	1.2 ± 0.15	1.19 ± 0.03	1.28 ± 0.093
UniProt O60313-2|E5KLJ5	1.01 ± 0.014	0.9706 ± 0.0012	0.96 ± 0.011	0.958 ± 0.026	0.9704 ± 0.0089	0.946 ± 0.02
WASL (UniProt O00401)	0.98 ± 0.038	0.919 ± 0.084	0.963 ± 0.1	0.952 ± 0.034	0.917 ± 0.015	0.991 ± 0.069
M0R3A8 and related entries (UniProt Q9NWS0)	1.01 ± 0.049	0.981 ± 0.03	0.989 ± 0.043	0.97 ± 0.076	0.985 ± 0.022	0.972 ± 0.046
MED14 (UniProt O60244)	1 ± 0.02	1.06 ± 0.036	1.06 ± 0.034	1.03 ± 0.053	1.03 ± 0.05	1.04 ± 0.092
M0R2P6 and related entries (UniProt Q8TBC3)	1.19 ± 0.023	1.18 ± 0.072	1.26 ± 0.16	1.19 ± 0.065	1.19 ± 0.095	1.2 ± 0.15
PDCD5 (UniProt O14737)	0.888 ± 0.07	0.905 ± 0.073	0.936 ± 0.052	1.05 ± 0.17	0.904 ± 0.014	0.886 ± 0.082
UniProt O43399 and related entries	0.867 ± 0.1	0.832 ± 0.12	0.822 ± 0.097	0.861 ± 0.12	0.805 ± 0.04	0.75 ± 0.14
UniProt O15066 and related entries	0.962 ± 0.063	0.95 ± 0.011	0.98 ± 0.022	0.985 ± 0.044	0.908 ± 0.015	0.9445 ± 0.0057
UniProt O00743 and related entries	1 ± 0.13	0.97 ± 0.082	0.95 ± 0.081	0.931 ± 0.12	1 ± 0.062	0.951 ± 0.059
TOR1B (UniProt O14657)	0.96 ± 0.036	0.954 ± 0.02	0.935 ± 0.044	0.885 ± 0.055	0.8724 ± 0.0086	0.947 ± 0.026
UniProt O43303 and related entries	1.08 ± 0.073	1.03 ± 0.03	1.06 ± 0.025	1.1 ± 0.12	1.09 ± 0.079	1.08 ± 0.068
UniProt O00442 and related entries	1.04 ± 0.084	1.01 ± 0.071	0.996 ± 0.043	1 ± 0.11	0.984 ± 0.035	0.995 ± 0.057
UniProt O00487	0.979 ± 0.066	0.887 ± 0.023	0.874 ± 0.036	0.891 ± 0.064	0.911 ± 0.065	0.872 ± 0.039
TIMM23 (UniProt O14925)	0.913 ± 0.047	0.943 ± 0.02	0.943 ± 0.016	0.883 ± 0.086	0.917 ± 0.015	0.931 ± 0.019
CHD2 (UniProt O14647)	1.09 ± 0.034	1.1 ± 0.032	1.19 ± 0.042	1.22 ± 0.041	1.24 ± 0.06	1.31 ± 0.071
POLRMT (UniProt O00411)	1.09 ± 0.14	1.04 ± 0.026	0.997 ± 0.048	0.98 ± 0.096	1.04 ± 0.062	1.04 ± 0.036
RRP9 (UniProt O43818)	1.03 ± 0.052	1.147 ± 0.0084	1.22 ± 0.029	1.38 ± 0.033	1.42 ± 0.044	1.62 ± 0.042
TRAPPC3 (UniProt O43617)	0.959 ± 0.017	0.953 ± 0.018	0.95 ± 0.013	0.882 ± 0.033	0.945 ± 0.019	0.873 ± 0.087
RNF13 (UniProt O43567)	0.94 ± 0.055	0.99 ± 0.029	0.978 ± 0.039	0.982 ± 0.078	0.919 ± 0.012	0.948 ± 0.031

Target	NP40-soluble protein abundance (concentration: 1mM)	NP40-soluble protein abundance (concentration: 2mM)	NP40-soluble protein abundance (concentration: 4mM)	NP40-soluble protein abundance (concentration: 6mM)	NP40-soluble protein abundance (concentration: 8mM)	NP40-soluble protein abundance (concentration: 10mM)
AKR7A2 (UniProt O43488)	0.926 ± 0.046	0.954 ± 0.018	0.946 ± 0.014	0.954 ± 0.033	0.94 ± 0.021	0.911 ± 0.037
FADS1 (UniProt O60427)	1.01 ± 0.075	1.06 ± 0.023	1.01 ± 0.033	0.956 ± 0.042	1.042 ± 0.01	1.02 ± 0.036
UniProt O15040 and related entries	0.947 ± 0.04	0.955 ± 0.062	0.975 ± 0.1	0.978 ± 0.11	0.943 ± 0.12	1.03 ± 0.066
PSMD9 (UniProt O00233)	0.955 ± 0.044	0.921 ± 0.031	0.875 ± 0.024	0.954 ± 0.034	0.893 ± 0.013	0.893 ± 0.046
DCTN6 (UniProt O00399)	0.992 ± 0.017	0.956 ± 0.022	0.931 ± 0.042	0.985 ± 0.061	0.949 ± 0.05	0.948 ± 0.065
PRMT5 (UniProt O14744)	1.03 ± 0.049	0.986 ± 0.033	0.96 ± 0.04	0.955 ± 0.015	1.006 ± 0.0091	0.981 ± 0.044
UniProt O15439 and related entries	0.853 ± 0.061	0.907 ± 0.082	1.05 ± 0.13	1.06 ± 0.15	0.908 ± 0.12	0.884 ± 0.082
UniProt O00592 and related entries	0.971 ± 0.13	0.9819 ± 0.0056	0.934 ± 0.067	0.968 ± 0.077	0.963 ± 0.026	0.878 ± 0.071
SPTBN2 (UniProt O15020)	0.953 ± 0.021	0.975 ± 0.018	0.9876 ± 0.0061	1.014 ± 0.0027	0.9914 ± 0.0086	1.01 ± 0.014
ARPC5 (UniProt O15511)	0.928 ± 0.13	0.908 ± 0.13	0.886 ± 0.1	0.95 ± 0.15	0.889 ± 0.066	0.812 ± 0.12
GMFG (UniProt O60234)	1.04 ± 0.041	0.998 ± 0.063	1.04 ± 0.095	0.984 ± 0.067	1.04 ± 0.1	0.945 ± 0.078
UniProt O14617-5	0.963 ± 0.051	0.992 ± 0.014	0.992 ± 0.04	0.9637 ± 0.0074	0.973 ± 0.04	0.9949 ± 0.0085
IPO8 (UniProt O15397)	1.01 ± 0.016	0.991 ± 0.019	0.972 ± 0.025	0.981 ± 0.02	0.9689 ± 0.0088	0.962 ± 0.015
UniProt O00165 and related entries	1.07 ± 0.04	1.04 ± 0.051	1.06 ± 0.074	1.07 ± 0.086	1.07 ± 0.034	1.07 ± 0.059
UniProt O43684 and related entries	1.09 ± 0.095	1.11 ± 0.05	1.11 ± 0.058	1.1 ± 0.089	1.1 ± 0.036	1.12 ± 0.031
UniProt O15446 and related entries	0.888 ± 0.05	0.951 ± 0.012	1.01 ± 0.095	1.04 ± 0.039	1.04 ± 0.11	1.02 ± 0.05
UniProt O43166-2|O43166-3|O43166	1.14 ± 0.18	1.02 ± 0.029	1.165 ± 0.008	1.18 ± 0.082	1.31 ± 0.06	1.36 ± 0.085
AP3B1 (UniProt O00203)	0.96 ± 0.024	0.992 ± 0.042	0.947 ± 0.036	0.919 ± 0.023	0.933 ± 0.048	0.984 ± 0.067
BACH1 (UniProt O14867)	0.898 ± 0.04	0.921 ± 0.011	0.916 ± 0.033	0.97 ± 0.06	0.888 ± 0.0097	0.91 ± 0.057
NPC1 (UniProt O15118)	0.988 ± 0.036	1.01 ± 0.043	0.988 ± 0.023	0.947 ± 0.049	0.9529 ± 0.0063	0.926 ± 0.072

Look-ups from the entries so far.
Under NP40-soluble protein abundance (concentration: 10mM), DCTN6 (UniProt O00399) reads 0.948 ± 0.065
Under NP40-soluble protein abundance (concentration: 6mM), PRMT5 (UniProt O14744) reads 0.955 ± 0.015
Under NP40-soluble protein abundance (concentration: 1mM), TRAPPC3 (UniProt O43617) reads 0.959 ± 0.017
Under NP40-soluble protein abundance (concentration: 1mM), UniProt O00442 and related entries reads 1.04 ± 0.084

More entries follow:

Target	NP40-soluble protein abundance (concentration: 1mM)	NP40-soluble protein abundance (concentration: 2mM)	NP40-soluble protein abundance (concentration: 4mM)	NP40-soluble protein abundance (concentration: 6mM)	NP40-soluble protein abundance (concentration: 8mM)	NP40-soluble protein abundance (concentration: 10mM)
PPIH (UniProt O43447)	0.959 ± 0.011	0.9684 ± 0.0069	0.946 ± 0.015	0.978 ± 0.043	0.947 ± 0.0034	0.979 ± 0.027
PIK3C2A (UniProt O00443)	0.969 ± 0.022	0.944 ± 0.045	0.91 ± 0.088	0.87 ± 0.076	0.868 ± 0.2	0.884 ± 0.21
UniProt O15371 and related entries	1.03 ± 0.049	1.09 ± 0.051	1.2 ± 0.051	1.27 ± 0.046	1.45 ± 0.034	1.57 ± 0.057
UQCRQ (UniProt O14949)	0.958 ± 0.083	0.903 ± 0.04	0.882 ± 0.079	0.829 ± 0.066	0.938 ± 0.074	0.823 ± 0.16
UniProt O00231 and related entries	0.96 ± 0.04	0.912 ± 0.029	0.884 ± 0.029	0.914 ± 0.062	0.931 ± 0.031	0.874 ± 0.026
YKT6 (UniProt O15498)	0.989 ± 0.03	0.9545 ± 0.007	0.916 ± 0.017	1.01 ± 0.041	0.922 ± 0.035	0.932 ± 0.042
PMM2 (UniProt O15305)	1.01 ± 0.039	0.971 ± 0.043	0.972 ± 0.034	0.979 ± 0.071	0.992 ± 0.058	0.972 ± 0.058
AQR (UniProt O60306)	1.07 ± 0.11	1.03 ± 0.071	1.03 ± 0.068	0.972 ± 0.083	1.08 ± 0.04	1.04 ± 0.07
UniProt O43172-2|O43172	1.08 ± 0.027	1.061 ± 0.0038	1.08 ± 0.022	1.14 ± 0.022	1.2 ± 0.018	1.21 ± 0.043
UniProt O60271 and related entries	0.953 ± 0.039	0.954 ± 0.031	0.919 ± 0.035	0.971 ± 0.033	0.929 ± 0.02	0.944 ± 0.012
SCAMP2 (UniProt O15127)	0.917 ± 0.031	0.961 ± 0.023	0.963 ± 0.04	0.98 ± 0.057	0.922 ± 0.043	0.955 ± 0.039
TRAFD1 (UniProt O14545)	0.931 ± 0.079	1.02 ± 0.13	1.01 ± 0.083	0.993 ± 0.11	1.02 ± 0.1	0.988 ± 0.087
RNF113A (UniProt O15541)	1.04 ± 0.089	1.04 ± 0.071	1.03 ± 0.067	1.03 ± 0.081	0.968 ± 0.074	1 ± 0.089
IGF2BP3 (UniProt O00425)	0.97 ± 0.034	0.959 ± 0.031	0.916 ± 0.029	0.967 ± 0.044	0.916 ± 0.031	0.916 ± 0.036
UniProt O15042 and related entries	1.15 ± 0.055	1.16 ± 0.046	1.2 ± 0.062	1.26 ± 0.087	1.29 ± 0.071	1.33 ± 0.072
ANKRD28 (UniProt O15084)	1.04 ± 0.1	0.988 ± 0.03	0.992 ± 0.051	0.958 ± 0.036	1.02 ± 0.021	0.998 ± 0.037
NCK2 (UniProt O43639)	0.999 ± 0.04	0.99 ± 0.039	1 ± 0.049	0.988 ± 0.043	0.997 ± 0.04	0.974 ± 0.04
UniProt O43402	1.035 ± 0.0073	1.006 ± 0.0079	1.02 ± 0.061	0.991 ± 0.014	0.979 ± 0.041	0.96 ± 0.027
UniProt O15530 and related entries	1.03 ± 0.039	1.03 ± 0.035	1.06 ± 0.042	1 ± 0.13	1.02 ± 0.082	1.07 ± 0.021
UniProt O15085 and related entries	0.904 ± 0.063	1.02 ± 0.062	1.04 ± 0.11	1.03 ± 0.03	0.914 ± 0.06	0.95 ± 0.047
